“And” between values parts separate entries of the source, which are not always exact repeats. Equal values may be shown once. The source gives many values for each of these; only a part stands here.
Legend:
Type in all cases: in vivo
Conditions in all cases: Citalopram 10 mg/kg I.P.
[1] = system: norepinephrin release in the rat prefrontal cortex; experiment: Microdialysis: norepinephrine release in prefrontal cortex after I.P. administration
Procedure: (§1) The aim of the study was to evaluate, using microdialysis, the effects of an intraperitoneal (I.P.) administration in rats of three different doses of SON-117 on dopamine and its metabolites, serotonin and its metabolite (5-HIAA), and norepinephrine levels in prefrontal cortex.
(§2) Thirty-two adult male Wistar rats were used for the whole study (4 groups of eight animals planned for the study, Table 1).
(§3) Surgery was performed on rats weighing about 300 g at the beginning of the experiments. Rats were anaesthetized with Ketamine (50 mg/kg) & Xylazine (15 mg/kg) by intramuscular administration. The animals were placed in a stereotaxic apparatus in the flat-skull position at a constant setting of −3.3 mm between ear bars and the incisor bar. The animals were treated with a local anesthesic (xylocaine 1%, Astra Zeneca) and an analgesic (Temgesic, from Schering Plough, 0.05 mg/kg, s.c.). A rostrocaudal midline incision was made with a lancet to expose the dorsal skull surface. The “stereotaxic zero” was defined by the Bregma in accordance with Paxinos and Watson's atlas (1986). A hole was drilled in the skull with a drill and the meninges were pierced with a sterile needle to implant a CMA12 guide cannula which later received the dialysis probe.
(§4) Coordinates used for implanting guide cannula in prefrontal cortex from Bregma were anteroposterior 3.7 mm, mediolateral 0.8 mm, and dorsoventral −2 mm (top of the probe was at −5 mm). The guide cannula was fixed to the skull with two stainless steel screws (1.88 mm outside diameter) anchored. An application of dental cement was added. A plastic collar allowed each animal to be tethered to a Swivel assembly of the CMA 120 awake animal system. Following surgery, rats were kept in individual cages and allowed to recover for a minimum of 3-5 days before the experimentation. The rats were handled and put in plastic bowl for 10 min at least every day to habituate the animals to their new environment for the dialysis. An I.P. administration with saline was also performed every day.
(§5) Dialysis probes (CMA12/3 mm, membrane, 20 kD cut-off, Carnegie Medicine, Stockholm, Sweden), were carefully washed before inserting into the guide cannula. The wash was performed with the artificial cerebrospinal fluid (aCSF) medium (NaCl 147 mM, KCl 2.7 mM, CaCl2 1.2 mM, MgCl2 0.85 mM) at room temperature. The dialysis system was then equilibrated at 20° C. at a perfusion rate of 1 μl/min with a Carnegie pump (CMA100). All catheters (FEP tubing, internal volume of 1.2 μl/10 cm, and tubing adaptors) used for microdialysis were treated in the same conditions.
(§6) The probes duly prepared were inserted into the guide cannula and the CMA120 Swivel assembly secured to the animal using a plastic collar. Flow through the dialysis probe with aCSF was maintained at a rate of 1 μl/min during the whole experimentation. The first four fractions (corresponding to 2 hours) were discarded to avoid the effects of parenchymal disturbance and to ensure that an approximate steady-state level was reached. Fractions were then collected over a period of 8.5 h during which time the animals remained quiet. The dialysates were automatically collected with an autosampler (microfraction collector CMA 140, Carnegie Medicin) and stored at −80° C. until analysis. […] Perfusion was then maintained for 7 hours with aCSF. The dialysates (30 μl) were collected into 300 μl vials, transferred into dry ice and then kept frozen (−80° C.) until analysis. Frozen samples were shipped to a partner for analysis. At the end of the microdialysis study, a PBS with colored ink was perfused through the probe in order to visualize the dialyzed area.
(§7) Catecholamine assay: Concentrations of dopamine, DOPAC, HVA, 5-HIAA, 5-HT, and norepinephrin were determined for each sample by HPLC coupled with electrochemical detection. […]

[2] = system: DOPAC release in the rat prefrontal cortex; experiment: Microdialysis: DOPAC release in prefrontal cortex after I.P. administration
Procedure: as §1, §2, §3, §4, §5, §6
(§8) Catecholamine assay: Concentrations of dopamine, DOPAC, HVA, 5-HIAA, 5-HT, and norepinephrin were determined for each sample by HPLC coupled with electrochemical detection.

[3] = system: dopamine release in the rat prefrontal cortex; experiment: Microdialysis: dopamine release in prefrontal cortex after I.P. administration
Procedure: as §1, §2, §3, §4, §5, §6, §8

[4] = system: 5-HIAA release in the rat prefrontal cortex; experiment: Microdialysis: 5-HIAA release in prefrontal cortex after I.P. administration
Procedure: as §1, §2, §3, §4, §5, §6, §8

[5] = system: HVA release in the rat prefrontal cortex; experiment: Microdialysis: HVA release in prefrontal cortex after I.P. administration
Procedure: as §1, §2, §3, §4, §5, §6, §8

[6] = system: 5-HT release in the rat prefrontal cortex; experiment: Microdialysis: 5-HT release in prefrontal cortex after I.P. administration
Procedure: as §1, §2, §3, §4, §5, §6, §7

## CN(C)CCCC1(c2ccc(F)cc2)OCc2cc(C#N)ccc21 (centres unmarked) [Citalopram, citalopram, reference compound]
[1]; T0-T30 min
  NOREPINEPHRIN in dialysate, individual animals: 74.79 % of respective basal and 96.79 % of respective basal and 91.31 % of respective basal and 76.07 % of respective basal and 83.3 % of respective basal and 80.39 % of respective basal and 120.29 % of respective basal and 37.71 % of respective basal
[1]; T6 h 30-T7 h
  NOREPINEPHRIN in dialysate, individual animals: 68.60 % of respective basal and 129.94 % of respective basal and 27.54 % of respective basal
[1]; T-30 min-T0 (pre-dose)
  NOREPINEPHRIN in dialysate, individual animals: 100.18 % of respective basal and 96.27 % of respective basal and 99.84 % of respective basal and 92.54 % of respective basal and 84.33 % of respective basal and 118.10 % of respective basal and 75.28 % of respective basal
[1]; T-1 h 30-T-1 h (pre-dose)
  NOREPINEPHRIN in dialysate, individual animals: 91.50 % of respective basal and 102.97 % of respective basal and 110.56 % of respective basal and 110.16 % of respective basal and 56.34 % of respective basal and 85.71 % of respective basal
[1]; T-1 h-T-30 min (pre-dose)
  NOREPINEPHRIN in dialysate, individual animals: 108.51 % of respective basal and 96.85 % of respective basal and 103.73 % of respective basal and 100.16 % of respective basal and 96.91 % of respective basal and 105.50 % of respective basal and 125.55 % of respective basal and 139.00 % of respective basal
[2]; T0-T30 min
  DOPAC in dialysate, individual animals: 93.99 % of respective basal and 83.62 % of respective basal and 112.02 % of respective basal and 110.56 % of respective basal and 84.96 % of respective basal and 81.33 % of respective basal and 69.89 % of respective basal and 107.55 % of respective basal
[2]; T6 h 30-T7 h
  DOPAC in dialysate, individual animals: 99.41 % of respective basal and 102.68 % of respective basal and 143.96 % of respective basal
[2]; T-30 min-T0 (pre-dose)
  DOPAC in dialysate, individual animals: 99.79 % of respective basal and 95.64 % of respective basal and 108.55 % of respective basal and 108.69 % of respective basal and 99.61 % of respective basal and 84.52 % of respective basal and 67.92 % of respective basal and 108.60 % of respective basal
[2]; T-1 h 30-T-1 h (pre-dose)
  DOPAC in dialysate, individual animals: 102.94 % of respective basal and 92.54 % of respective basal and 99.21 % of respective basal and 111.33 % of respective basal and 155.92 % of respective basal and 77.39 % of respective basal
[2]; T-1 h-T-30 min (pre-dose)
  DOPAC in dialysate, individual animals: 97.26 % of respective basal and 111.85 % of respective basal and 91.46 % of respective basal and 91.31 % of respective basal and 101.18 % of respective basal and 104.15 % of respective basal and 76.13 % of respective basal and 114.03 % of respective basal
[3]; T0-T30 min
  DOPAMINE in dialysate, individual animals: 179.63 % of respective basal and 83.92 % of respective basal and 103.86 % of respective basal and 49.65 % of respective basal and 68.83 % of respective basal and 258.63 % of respective basal and 124.48 % of respective basal
[3]; T-30 min-T0 (pre-dose)
  DOPAMINE in dialysate, individual animals: 162.70 % of respective basal and 92.21 % of respective basal and 56.27 % of respective basal and 98.12 % of respective basal and 109.32 % of respective basal and 89.74 % of respective basal and 120.02 % of respective basal and 121.94 % of respective basal
[3]; T-1 h 30-T-1 h (pre-dose)
  DOPAMINE in dialysate, individual animals: 66.18 % of respective basal and 102.55 % of respective basal and 71.08 % of respective basal
[3]; T-1 h-T-30 min (pre-dose)
  DOPAMINE in dialysate, individual animals: 42.17 % of respective basal and 109.98 % of respective basal and 143.76 % of respective basal and 103.07 % of respective basal and 96.29 % of respective basal and 144.11 % of respective basal and 62.54 % of respective basal and 100.17 % of respective basal
[4]; T0-T30 min
  5-HIAA in dialysate, individual animals: 113.55 % of respective basal and 90.94 % of respective basal and 128.69 % of respective basal and 122.21 % of respective basal and 102.91 % of respective basal and 100.32 % of respective basal and 96.43 % of respective basal and 123.47 % of respective basal
[4]; T6 h 30-T7 h
  5-HIAA in dialysate, individual animals: 63.13 % of respective basal and 77.37 % of respective basal and 75.78 % of respective basal
[4]; T-30 min-T0 (pre-dose)
  5-HIAA in dialysate, individual animals: 110.34 % of respective basal and 99.39 % of respective basal and 105.29 % of respective basal and 103.60 % of respective basal and 103.56 % of respective basal and 97.47 % of respective basal and 93.29 % of respective basal and 105.37 % of respective basal
[4]; T-1 h 30-T-1 h (pre-dose)
  5-HIAA in dialysate, individual animals: 90.36 % of respective basal and 98.60 % of respective basal and 99.47 % of respective basal and 95.83 % of respective basal and 117.59 % of respective basal and 82.96 % of respective basal
[4]; T-1 h-T-30 min (pre-dose)
  5-HIAA in dialysate, individual animals: 99.30 % of respective basal and 102.01 % of respective basal and 94.71 % of respective basal and 91.40 % of respective basal and 96.98 % of respective basal and 106.69 % of respective basal and 89.12 % of respective basal and 111.67 % of respective basal
[5]; T-1 h 30-T-1 h (pre-dose)
  HVA in dialysate, individual animals: 96.85 % of respective basal and 107.64 % of respective basal and 146.16 % of respective basal and 75.28 % of respective basal
[5]; T-1 h-T-30 min (pre-dose)
  HVA in dialysate, individual animals: 97.80 % of respective basal and 96.30 % of respective basal and 98.15 % of respective basal and 89.04 % of respective basal and 96.35 % of respective basal and 102.63 % of respective basal and 82.52 % of respective basal and 116.32 % of respective basal
[6]; T0-T30 min
  5-HT in dialysate, individual animals: 59.09 % of respective basal and 54.82 % of respective basal and 123.43 % of respective basal and 89.05 % of respective basal and 57.41 % of respective basal and 137.48 % of respective basal and 95.22 % of respective basal and 65.30 % of respective basal
[6]; T6 h 30-T7 h
  5-HT in dialysate, individual animals: 67.20 % of respective basal and 193.93 % of respective basal and 93.41 % of respective basal and 57.68 % of respective basal
[6]; T-30 min-T0 (pre-dose)
  5-HT in dialysate, individual animals: 109.92 % of respective basal and 84.25 % of respective basal and 83.73 % of respective basal and 103.39 % of respective basal and 69.44 % of respective basal and 91.49 % of respective basal and 90.29 % of respective basal and 68.25 % of respective basal
[6]; T-1 h 30-T-1 h (pre-dose)
  5-HT in dialysate, individual animals: 111.65 % of respective basal and 104.59 % of respective basal and 126.75 % of respective basal and 105.38 % of respective basal and 71.17 % of respective basal and 131.14 % of respective basal
[6]; T-1 h-T-30 min (pre-dose)
  5-HT in dialysate, individual animals: 79.05 % of respective basal and 111.13 % of respective basal and 116.00 % of respective basal and 96.78 % of respective basal and 103.66 % of respective basal and 99.99 % of respective basal and 137.97 % of respective basal and 102.12 % of respective basal

Reference: patent publication US20250109127A1, “METHODS OF USE OF PHENOXYPROPYLAMINE COMPOUNDS TO TREAT DEPRESSION” (Minerva Neurosciences, Inc., priority 2013, published 2025)
